Reference: publication PMC7862700
This is a selection; strong and weak results do not stand in their true shares. At the low end of the ranking, values are background and their order means little.

By UniProt entry, the sequences of proteins in these tests, tags left out. Where a name states a change or a piece, a line headed by the entry shows the natural chain unless it says otherwise.
UniProt Q9Y603: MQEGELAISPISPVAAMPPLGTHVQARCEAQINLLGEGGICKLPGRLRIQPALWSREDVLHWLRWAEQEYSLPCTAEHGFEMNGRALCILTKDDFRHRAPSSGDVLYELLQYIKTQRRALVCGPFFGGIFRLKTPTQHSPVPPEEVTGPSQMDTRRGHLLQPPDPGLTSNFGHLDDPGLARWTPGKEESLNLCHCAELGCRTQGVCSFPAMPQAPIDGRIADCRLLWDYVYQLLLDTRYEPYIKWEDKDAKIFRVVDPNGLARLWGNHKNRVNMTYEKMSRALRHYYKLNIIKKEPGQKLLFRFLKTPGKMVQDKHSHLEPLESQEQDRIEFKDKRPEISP
UniProt P41212: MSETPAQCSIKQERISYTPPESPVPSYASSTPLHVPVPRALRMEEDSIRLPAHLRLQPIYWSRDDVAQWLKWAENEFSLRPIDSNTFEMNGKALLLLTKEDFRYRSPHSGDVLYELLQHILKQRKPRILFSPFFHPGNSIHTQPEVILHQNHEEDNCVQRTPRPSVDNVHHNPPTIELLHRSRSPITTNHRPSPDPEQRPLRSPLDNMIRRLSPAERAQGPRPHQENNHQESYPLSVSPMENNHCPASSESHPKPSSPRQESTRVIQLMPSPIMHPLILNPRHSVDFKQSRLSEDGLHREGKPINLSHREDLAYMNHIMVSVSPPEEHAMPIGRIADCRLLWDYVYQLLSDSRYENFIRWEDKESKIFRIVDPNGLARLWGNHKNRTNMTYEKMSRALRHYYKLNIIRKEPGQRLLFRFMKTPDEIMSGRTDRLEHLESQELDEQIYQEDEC

How the values were obtained:
Experiment in all cases: DAPPL (digital affinity profiling via proximity ligation, sequencing)
Conditions in all cases: 10 mM Tris-HCl pH 7.5, 50 mM NaCl, 1 mM DTT, 4% glycerol, room temperature, 30 min; GST-TFs on glutathione beads, 16-mer random dsDNA library, 0.1% …; high values mean tight binding; double strand, one strand shown; scale: fold enrichment (6-mer frequency, TF over GST control)
[1] = target: T1, ELF3 (UniProt P78545)
T1 sequence: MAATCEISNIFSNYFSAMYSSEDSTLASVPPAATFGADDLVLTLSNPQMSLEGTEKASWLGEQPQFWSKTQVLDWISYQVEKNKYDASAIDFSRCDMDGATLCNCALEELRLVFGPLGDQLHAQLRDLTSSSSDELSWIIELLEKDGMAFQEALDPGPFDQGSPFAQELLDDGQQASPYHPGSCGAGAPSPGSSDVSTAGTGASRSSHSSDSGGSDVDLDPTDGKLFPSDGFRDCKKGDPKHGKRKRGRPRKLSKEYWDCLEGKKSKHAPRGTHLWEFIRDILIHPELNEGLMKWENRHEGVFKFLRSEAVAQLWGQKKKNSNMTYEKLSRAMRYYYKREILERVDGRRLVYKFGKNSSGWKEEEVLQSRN

[2] = target: ETV7 (UniProt Q9Y603)
[3] = target: ETV6 (UniProt P41212)

Sequence	binding signal [1]	binding signal [2]	binding signal [3]
CCACCA	0.96	0.996	0.977
GCGAAG	0.922	0.973	0.836
GTATGT	0.953	0.961	0.932
GTGGAA	0.976	0.919	0.937
ATTGTG	0.898	0.972	0.911
GCCAGA	0.627	0.643	0.649
GGATTA	0.739	0.929	0.908
GATTGC	0.968	1.03	0.954
GTGGTC	0.704	0.835	0.78
CGTCGA	0.803	0.94	0.929
GTCACC	0.983	0.869	0.911
TCATTG	0.874	0.897	0.959
CATCGT	0.908	0.899	0.923
ATTCGG	0.935	0.935	0.948
TCGCGA	0.822	0.923	0.902
TGTTGG	0.969	0.91	0.911
CCAGAT	0.963	0.934	0.857
CGCGCA	0.852	0.946	0.941
GGTCCA	0.765	0.876	0.906
TCCAGA	0.852	0.803	0.877
GTTAGC	0.888	0.998	0.98
GCAAAG	0.95	0.994	0.934
AGAATC	0.907	0.945	0.903

Sequence	binding signal [1]	binding signal [2]	binding signal [3]
AGGCTA	0.881	0.946	0.9
CAGTAT	1.1	0.933	0.903
AGGATA	0.987	0.916	0.988
CCAAGT	0.973	0.952	0.927
TGAACG	1.16	0.895	0.91
GAATTA	0.971	1.06	1.08
TCATCG	0.993	0.97	0.975
GTTGAT	0.975	0.951	0.966
TCATAA	0.931	0.993	1
AGATGG	0.977	0.876	0.941
GTCTGG	0.824	0.927	0.827
GCGCGT	0.88	0.973	0.87
GAATCA	0.959	0.908	0.934
CGGGCT	0.959	0.994	0.99
GTTCAG	0.856	0.916	0.867
AGCTTG	0.823	0.906	0.903
GCTAAG	0.991	0.999	0.983
ACGCGA	0.834	0.909	0.88
CCACAG	0.999	0.863	0.91
GATTAG	0.833	0.902	0.771
AATGGA	1.05	1.03	1.12
GAATAG	0.976	0.997	0.983
ACGCTC	0.989	0.974	0.948

Sequence	binding signal [1]	binding signal [2]	binding signal [3]
TATACA	1.43		1.25
CGCCAC	0.93	0.999	0.957
CGCTTG	1.2		1.11
CACATC	1.34		1.5
TCGCAT	0.981		0.989
GCGAAA	0.953		0.931
ACGGTA	0.948	0.976	0.997
ACTCGA	0.96		1.27
ACAGCA	0.984		0.999
GCCCTG	0.904	0.993	0.963
GCGCGC	1.05		1.03
CGAGAT	0.936	0.926	0.91
TCGAAG	0.801	0.888	0.838
ATTAAA	1.05		1.18
GTGCTG	0.651	0.914	0.894
AGTACT	1.29		1.62
AGATGA	0.959		1.13
TTGGCT	0.956		1.13
TGTATG	1.19		1.16
GTCATT	0.978		0.99
CAAAGT	0.822		0.897
TCGATA	0.998		1.01
GGATAA	0.857	0.79	0.762

Quoted at random: 3 entries already listed, in no set order.
Sequence	binding signal [1]	binding signal [2]	binding signal [3]
CGAGAT	0.936	0.926	0.91
GCCCTG	0.904	0.993	0.963
ATTAAA	1.05		1.18

Later entries

Sequence	binding signal [1]	binding signal [2]	binding signal [3]
CGGCCT	1.03		0.96
GTCTAA	0.992		0.947
TTCAGA	0.838	0.855	0.919
AAGGGT	0.998	1.1	0.982
GCGTTG	0.949		0.896
GCCTAG	0.841		0.875
GTGGTA	0.812	0.961	0.877
AGAAGG	0.757	0.769	0.725
CAACTC	1.24		1.29
CTGGCG	0.72	0.789	0.794
CGCGAA	0.897		0.952
GTAAAT	1.25		1.18
CGCGTA	0.976		1.01
TCTTAT	1.36		1.3
ACCCTG	0.914		1.07
TAGAGA	0.799	0.816	0.813
AGAAAA	0.871		0.967
GGCTTG	1.11		0.9
GGACTT	1.06		1.13
AGCACA	0.929		1.11
TGGAAG	0.892		1.19
